Source: the supplement of paper PMC6411743
± gives the standard deviation of the averaged measurements. Only a part is listed here, and it is no random draw.

The chains behind the UniProt entries cited, without tags or fusion partners. Where a name states a change or a piece, a line headed by the entry shows the natural chain unless it says otherwise.
UniProt Q8WW59: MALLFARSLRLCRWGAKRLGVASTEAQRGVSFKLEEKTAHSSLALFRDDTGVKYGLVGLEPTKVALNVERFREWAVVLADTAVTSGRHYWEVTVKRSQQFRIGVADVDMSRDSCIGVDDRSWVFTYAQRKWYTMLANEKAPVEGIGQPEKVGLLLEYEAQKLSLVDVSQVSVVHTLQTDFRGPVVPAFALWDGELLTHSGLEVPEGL
UniProt Q969J2: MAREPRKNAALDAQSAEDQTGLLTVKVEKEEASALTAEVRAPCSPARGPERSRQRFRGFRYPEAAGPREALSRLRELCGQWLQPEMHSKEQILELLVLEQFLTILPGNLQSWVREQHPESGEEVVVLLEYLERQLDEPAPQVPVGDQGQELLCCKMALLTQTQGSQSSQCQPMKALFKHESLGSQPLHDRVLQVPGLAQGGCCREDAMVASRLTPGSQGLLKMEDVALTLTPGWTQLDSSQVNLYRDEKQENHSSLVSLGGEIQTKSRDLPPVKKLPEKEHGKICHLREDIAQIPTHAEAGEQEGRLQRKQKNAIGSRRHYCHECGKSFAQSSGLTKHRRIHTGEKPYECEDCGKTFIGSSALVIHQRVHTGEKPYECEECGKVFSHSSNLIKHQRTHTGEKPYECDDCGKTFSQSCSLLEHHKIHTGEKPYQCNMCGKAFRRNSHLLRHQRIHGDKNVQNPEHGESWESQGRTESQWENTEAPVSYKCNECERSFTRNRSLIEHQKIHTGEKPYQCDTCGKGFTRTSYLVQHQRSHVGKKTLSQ
UniProt Q92766: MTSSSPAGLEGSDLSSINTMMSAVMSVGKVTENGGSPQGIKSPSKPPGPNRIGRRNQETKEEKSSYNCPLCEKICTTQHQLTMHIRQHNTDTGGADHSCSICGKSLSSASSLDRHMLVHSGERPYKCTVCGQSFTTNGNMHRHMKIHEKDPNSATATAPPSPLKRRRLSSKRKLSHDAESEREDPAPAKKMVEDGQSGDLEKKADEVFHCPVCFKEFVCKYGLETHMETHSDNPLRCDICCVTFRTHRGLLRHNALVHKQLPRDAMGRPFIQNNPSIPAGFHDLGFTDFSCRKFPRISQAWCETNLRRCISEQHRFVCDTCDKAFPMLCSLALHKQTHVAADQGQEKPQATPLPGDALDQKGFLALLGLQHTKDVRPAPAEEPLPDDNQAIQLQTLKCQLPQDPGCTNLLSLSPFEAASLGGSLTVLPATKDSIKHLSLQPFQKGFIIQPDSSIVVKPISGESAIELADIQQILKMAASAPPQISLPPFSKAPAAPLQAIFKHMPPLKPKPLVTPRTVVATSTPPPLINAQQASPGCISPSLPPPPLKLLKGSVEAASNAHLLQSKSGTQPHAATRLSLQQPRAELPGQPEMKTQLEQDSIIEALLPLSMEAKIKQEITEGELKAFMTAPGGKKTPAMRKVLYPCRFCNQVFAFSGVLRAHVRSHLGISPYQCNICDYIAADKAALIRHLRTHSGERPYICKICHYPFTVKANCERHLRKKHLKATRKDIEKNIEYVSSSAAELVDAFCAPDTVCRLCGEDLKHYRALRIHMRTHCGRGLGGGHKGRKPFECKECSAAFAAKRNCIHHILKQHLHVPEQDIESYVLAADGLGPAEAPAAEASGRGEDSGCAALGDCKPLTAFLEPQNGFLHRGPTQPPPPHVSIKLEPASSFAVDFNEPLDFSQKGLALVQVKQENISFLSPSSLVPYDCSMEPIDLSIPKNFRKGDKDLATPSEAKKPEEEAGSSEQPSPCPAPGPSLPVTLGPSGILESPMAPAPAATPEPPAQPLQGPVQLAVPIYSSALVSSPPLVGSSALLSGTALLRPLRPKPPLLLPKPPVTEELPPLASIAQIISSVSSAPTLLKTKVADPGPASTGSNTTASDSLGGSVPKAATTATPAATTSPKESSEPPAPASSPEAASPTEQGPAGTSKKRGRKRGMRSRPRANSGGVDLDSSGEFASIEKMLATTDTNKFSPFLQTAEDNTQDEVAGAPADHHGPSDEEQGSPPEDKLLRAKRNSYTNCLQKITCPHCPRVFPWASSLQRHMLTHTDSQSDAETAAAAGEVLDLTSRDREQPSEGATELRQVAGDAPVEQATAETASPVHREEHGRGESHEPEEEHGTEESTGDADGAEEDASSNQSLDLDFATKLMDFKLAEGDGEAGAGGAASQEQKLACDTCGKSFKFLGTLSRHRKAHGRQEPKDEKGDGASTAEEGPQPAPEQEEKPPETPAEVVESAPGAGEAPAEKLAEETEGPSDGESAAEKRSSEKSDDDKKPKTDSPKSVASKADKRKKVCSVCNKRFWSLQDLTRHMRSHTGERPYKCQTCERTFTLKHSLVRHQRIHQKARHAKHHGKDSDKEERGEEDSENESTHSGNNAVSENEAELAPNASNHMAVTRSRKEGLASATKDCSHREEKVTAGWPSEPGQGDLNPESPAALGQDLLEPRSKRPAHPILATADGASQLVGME
UniProt Q8TCD1: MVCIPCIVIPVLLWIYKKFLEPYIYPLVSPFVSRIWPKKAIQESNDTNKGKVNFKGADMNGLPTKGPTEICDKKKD
UniProt Q92889: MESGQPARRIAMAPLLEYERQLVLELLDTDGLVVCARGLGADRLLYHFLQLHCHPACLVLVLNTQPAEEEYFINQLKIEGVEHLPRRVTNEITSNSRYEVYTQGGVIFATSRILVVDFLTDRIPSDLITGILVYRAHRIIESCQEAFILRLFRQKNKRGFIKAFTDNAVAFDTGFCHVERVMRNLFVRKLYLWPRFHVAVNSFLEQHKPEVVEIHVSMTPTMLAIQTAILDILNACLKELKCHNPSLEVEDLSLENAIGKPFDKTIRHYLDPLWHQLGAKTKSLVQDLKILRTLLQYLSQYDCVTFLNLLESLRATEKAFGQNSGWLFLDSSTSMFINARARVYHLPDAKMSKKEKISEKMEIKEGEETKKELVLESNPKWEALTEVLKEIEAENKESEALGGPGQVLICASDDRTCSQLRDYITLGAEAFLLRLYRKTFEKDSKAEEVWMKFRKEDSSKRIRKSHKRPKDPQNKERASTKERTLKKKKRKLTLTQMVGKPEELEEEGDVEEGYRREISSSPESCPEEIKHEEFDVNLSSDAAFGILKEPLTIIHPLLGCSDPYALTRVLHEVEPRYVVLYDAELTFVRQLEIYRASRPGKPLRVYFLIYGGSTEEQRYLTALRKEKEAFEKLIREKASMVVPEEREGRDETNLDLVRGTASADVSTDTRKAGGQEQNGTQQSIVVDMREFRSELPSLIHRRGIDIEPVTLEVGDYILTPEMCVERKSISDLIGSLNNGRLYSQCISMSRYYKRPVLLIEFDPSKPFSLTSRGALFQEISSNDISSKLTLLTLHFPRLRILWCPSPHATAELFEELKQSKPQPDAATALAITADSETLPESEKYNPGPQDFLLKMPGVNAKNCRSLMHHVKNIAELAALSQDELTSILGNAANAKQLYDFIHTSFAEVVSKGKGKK
UniProt Q8TCZ2: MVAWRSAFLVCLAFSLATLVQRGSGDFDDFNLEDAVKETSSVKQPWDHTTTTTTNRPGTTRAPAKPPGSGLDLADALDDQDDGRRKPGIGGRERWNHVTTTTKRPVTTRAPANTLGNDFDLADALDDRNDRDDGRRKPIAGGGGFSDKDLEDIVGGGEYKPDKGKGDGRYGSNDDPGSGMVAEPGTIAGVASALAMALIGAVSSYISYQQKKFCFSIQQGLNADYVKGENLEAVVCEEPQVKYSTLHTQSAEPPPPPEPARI
UniProt Q8WUJ0: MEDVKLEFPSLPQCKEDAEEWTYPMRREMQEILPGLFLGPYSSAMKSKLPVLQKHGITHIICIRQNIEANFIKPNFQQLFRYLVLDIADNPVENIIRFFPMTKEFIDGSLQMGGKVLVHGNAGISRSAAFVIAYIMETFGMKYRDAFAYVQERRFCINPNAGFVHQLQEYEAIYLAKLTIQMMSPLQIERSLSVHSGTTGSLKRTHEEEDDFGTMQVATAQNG
UniProt Q8WXF1: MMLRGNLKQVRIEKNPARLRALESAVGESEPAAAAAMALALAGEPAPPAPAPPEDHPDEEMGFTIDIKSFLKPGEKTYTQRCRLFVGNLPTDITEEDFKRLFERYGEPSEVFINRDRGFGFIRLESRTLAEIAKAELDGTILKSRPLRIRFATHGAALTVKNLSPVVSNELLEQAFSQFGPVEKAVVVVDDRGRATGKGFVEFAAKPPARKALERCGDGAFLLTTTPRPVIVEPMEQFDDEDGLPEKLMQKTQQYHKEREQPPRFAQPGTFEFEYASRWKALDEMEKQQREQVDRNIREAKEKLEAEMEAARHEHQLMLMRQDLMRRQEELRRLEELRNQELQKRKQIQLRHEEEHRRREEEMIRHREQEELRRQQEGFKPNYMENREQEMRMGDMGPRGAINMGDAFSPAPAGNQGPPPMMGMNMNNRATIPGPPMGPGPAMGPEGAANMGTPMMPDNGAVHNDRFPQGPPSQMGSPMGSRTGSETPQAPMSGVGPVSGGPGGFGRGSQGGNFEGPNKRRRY
UniProt Q8TEA1: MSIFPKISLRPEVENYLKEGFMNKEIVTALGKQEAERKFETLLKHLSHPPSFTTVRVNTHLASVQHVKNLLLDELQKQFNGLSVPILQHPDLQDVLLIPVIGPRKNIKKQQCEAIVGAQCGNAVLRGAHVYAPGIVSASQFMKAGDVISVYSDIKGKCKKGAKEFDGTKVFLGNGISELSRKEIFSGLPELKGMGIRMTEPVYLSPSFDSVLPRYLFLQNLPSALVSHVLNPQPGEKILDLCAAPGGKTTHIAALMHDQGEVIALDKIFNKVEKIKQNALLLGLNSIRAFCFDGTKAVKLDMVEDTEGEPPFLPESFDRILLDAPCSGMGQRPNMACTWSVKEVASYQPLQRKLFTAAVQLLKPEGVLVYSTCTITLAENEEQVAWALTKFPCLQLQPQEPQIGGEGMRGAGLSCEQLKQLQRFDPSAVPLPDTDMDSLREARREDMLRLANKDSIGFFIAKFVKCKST
UniProt Q96BJ3: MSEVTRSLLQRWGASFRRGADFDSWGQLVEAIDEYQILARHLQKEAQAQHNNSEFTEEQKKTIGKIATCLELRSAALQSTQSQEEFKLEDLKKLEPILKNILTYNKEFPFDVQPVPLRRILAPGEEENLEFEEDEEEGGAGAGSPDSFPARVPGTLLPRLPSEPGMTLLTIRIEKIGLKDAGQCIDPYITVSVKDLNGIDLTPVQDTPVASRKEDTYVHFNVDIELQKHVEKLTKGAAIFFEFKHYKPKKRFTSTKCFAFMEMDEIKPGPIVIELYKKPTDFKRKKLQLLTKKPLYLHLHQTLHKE
UniProt Q8WWK9: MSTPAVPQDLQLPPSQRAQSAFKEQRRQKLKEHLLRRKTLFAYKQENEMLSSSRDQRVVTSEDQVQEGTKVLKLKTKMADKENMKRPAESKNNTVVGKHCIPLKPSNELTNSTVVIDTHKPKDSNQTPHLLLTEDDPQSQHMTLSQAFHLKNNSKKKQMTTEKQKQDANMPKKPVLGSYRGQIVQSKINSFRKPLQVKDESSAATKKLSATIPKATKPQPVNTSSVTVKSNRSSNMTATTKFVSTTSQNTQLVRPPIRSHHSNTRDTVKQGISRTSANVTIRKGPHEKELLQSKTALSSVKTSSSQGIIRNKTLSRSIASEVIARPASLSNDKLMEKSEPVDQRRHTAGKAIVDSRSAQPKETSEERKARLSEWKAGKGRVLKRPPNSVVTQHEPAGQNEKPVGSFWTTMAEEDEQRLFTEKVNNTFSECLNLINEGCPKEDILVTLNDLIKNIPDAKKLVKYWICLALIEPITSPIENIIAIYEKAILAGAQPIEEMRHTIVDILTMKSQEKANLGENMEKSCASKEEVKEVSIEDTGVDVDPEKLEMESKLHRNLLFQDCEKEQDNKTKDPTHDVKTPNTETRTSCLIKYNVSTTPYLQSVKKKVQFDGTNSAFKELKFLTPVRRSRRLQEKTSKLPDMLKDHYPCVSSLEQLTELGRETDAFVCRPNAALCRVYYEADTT
UniProt Q8TE02: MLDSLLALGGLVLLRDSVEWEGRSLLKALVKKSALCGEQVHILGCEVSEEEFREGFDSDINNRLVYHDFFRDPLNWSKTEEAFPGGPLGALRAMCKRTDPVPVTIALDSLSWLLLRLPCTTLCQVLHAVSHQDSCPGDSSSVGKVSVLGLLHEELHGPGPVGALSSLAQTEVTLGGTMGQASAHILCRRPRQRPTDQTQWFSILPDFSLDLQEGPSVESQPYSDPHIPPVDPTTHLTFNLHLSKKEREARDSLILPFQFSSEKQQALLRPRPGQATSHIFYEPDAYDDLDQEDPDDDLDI
UniProt Q92820: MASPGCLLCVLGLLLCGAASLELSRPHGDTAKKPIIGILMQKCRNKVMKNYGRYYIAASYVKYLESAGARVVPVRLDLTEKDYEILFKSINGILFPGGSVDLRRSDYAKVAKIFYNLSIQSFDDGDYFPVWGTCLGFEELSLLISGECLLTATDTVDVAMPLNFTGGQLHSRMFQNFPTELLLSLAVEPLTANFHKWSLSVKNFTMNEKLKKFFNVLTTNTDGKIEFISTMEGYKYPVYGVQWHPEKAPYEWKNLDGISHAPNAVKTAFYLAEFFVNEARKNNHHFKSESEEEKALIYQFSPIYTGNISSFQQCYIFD

compound: Nc1ncnc2c1ncn2[C@@H]1O[C@H](COP(=O)(O)OP(=O)(O)OP(=O)(O)O)[C@@H](O)[C@H]1O [adenosine triphosphate]; assay: NP40-soluble protein abundance relative to vehicle (solubility fold change) (ratio); higher = more soluble protein in presence of ATP; settings: concentration: 10mM
In short: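 Values are fold changes against the detergent-processed vehicle, based on vsn-normalised intensities. Jurkat crude lysate was treated at eight concentrations from 0.1 to 10 mM (10 min at room temperature, then 3 min at 37 °C), solubilised with 0.8% NP40 and benzonase, ultracentrifuged and analysed by TMT-labelled LC-MS/MS over three independent experiments.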

**Q.** For SPRYD4 (UniProt Q8WW59), which NP40-soluble protein abundance is on record?
**A.** 1 ± 0.065

**Q.** UniProt Q8TCY9 was tested. Which NP40-soluble protein abundance did it give?
**A.** 0.901 ± 0.16

**Q.** With ZKSCAN4 (UniProt Q969J2) as the target, how does the NP40-soluble protein abundance read?
**A.** 1.159 ± 0.0075

**Q.** RTF1 (UniProt Q92541) was tested. Which NP40-soluble protein abundance did it give?
**A.** 0.89 ± 0.023

**Q.** For UniProt Q92845 and related entries, which NP40-soluble protein abundance is on record?
**A.** 1.01 ± 0.11

**Q.** With UniProt Q93015 and related entries as the target, how does the NP40-soluble protein abundance read?
**A.** 0.87 ± 0.029

**Q.** ERGIC1 (UniProt Q969X5) was tested. Which NP40-soluble protein abundance did it give?
**A.** 1.02 ± 0.063

**Q.** How did the NP40-soluble protein abundance turn out when PPP1R13L (UniProt Q8WUF5) was run?
**A.** 0.99 ± 0.022

**Q.** How did the NP40-soluble protein abundance turn out when DPF3 (UniProt Q92784) was run?
**A.** 1.03 ± 0.056

**Q.** With MRPL24 (UniProt Q96A35) as the target, how does the NP40-soluble protein abundance read?
**A.** 0.82 ± 0.15

**Q.** Which NP40-soluble protein abundance does the source give for UniProt Q92766 and related entries here?
**A.** 1.15 ± 0.075

**Q.** How did the NP40-soluble protein abundance turn out when C18orf32 (UniProt Q8TCD1) was run?
**A.** 0.799 ± 0.16

**Q.** For ZC3H15 (UniProt Q8WU90), which NP40-soluble protein abundance is on record?
**A.** 0.969 ± 0.033

**Q.** ITFG2 (UniProt Q969R8) was tested. Which NP40-soluble protein abundance did it give?
**A.** 0.962 ± 0.023

**Q.** Which NP40-soluble protein abundance does the source give for UniProt Q92622 and related entries here?
**A.** 0.924 ± 0.042

**Q.** How did the NP40-soluble protein abundance turn out when UniProt Q8TBX8 and related entries was run?
**A.** 1.02 ± 0.019

**Q.** Which NP40-soluble protein abundance does the source give for ERCC4 (UniProt Q92889) here?
**A.** 1.01 ± 0.043

**Q.** UniProt Q8TCZ2 and related entries was tested. Which NP40-soluble protein abundance did it give?
**A.** 0.816 ± 0.063

**Q.** With UniProt Q969P0 and related entries as the target, how does the NP40-soluble protein abundance read?
**A.** 0.982 ± 0.023

**Q.** How did the NP40-soluble protein abundance turn out when STYX (UniProt Q8WUJ0) was run?
**A.** 0.973 ± 0.11

**Q.** Which NP40-soluble protein abundance does the source give for NTAN1 (UniProt Q96AB6) here?
**A.** 1.18 ± 0.15

**Q.** PSPC1 (UniProt Q8WXF1) was tested. Which NP40-soluble protein abundance did it give?
**A.** 1.03 ± 0.023

**Q.** How did the NP40-soluble protein abundance turn out when UniProt Q8WVM7 and related entries was run?
**A.** 1.08 ± 0.11

**Q.** Which NP40-soluble protein abundance does the source give for UniProt Q8TEX9 and related entries here?
**A.** 0.969 ± 0.046

**Q.** Which NP40-soluble protein abundance does the source give for UBXN4 (UniProt Q92575) here?
**A.** 0.956 ± 0.024

**Q.** Which NP40-soluble protein abundance does the source give for NSUN6 (UniProt Q8TEA1) here?
**A.** 0.992 ± 0.055

**Q.** With UniProt Q96AE7-2|Q96AE7 as the target, how does the NP40-soluble protein abundance read?
**A.** 0.981 ± 0.22

**Q.** Which NP40-soluble protein abundance does the source give for NUP205 (UniProt Q92621) here?
**A.** 1.11 ± 0.051

**Q.** With AIDA (UniProt Q96BJ3) as the target, how does the NP40-soluble protein abundance read?
**A.** 0.992 ± 0.06

**Q.** With UniProt Q8WWK9 and related entries as the target, how does the NP40-soluble protein abundance read?
**A.** 1.09 ± 0.025

**Q.** Which NP40-soluble protein abundance does the source give for PIGK (UniProt Q92643) here?
**A.** 1.09 ± 0.07

**Q.** Which NP40-soluble protein abundance does the source give for UniProt Q92974 and related entries here?
**A.** 1.07 ± 0.064

**Q.** With UniProt Q969G3 and related entries as the target, how does the NP40-soluble protein abundance read?
**A.** 0.963 ± 0.075

**Q.** With UniProt Q93074 and related entries as the target, how does the NP40-soluble protein abundance read?
**A.** 1.04 ± 0.055

**Q.** With UniProt Q8TE02 and related entries as the target, how does the NP40-soluble protein abundance read?
**A.** 1.04 ± 0.065

**Q.** Which NP40-soluble protein abundance does the source give for GGH (UniProt Q92820) here?
**A.** 0.898 ± 0.032
